Source: article PMC8493742
Results are given in words; binding and its absence hold for the method and conditions named. In cells and extracts the contact can be indirect.

Protein sequences, listed by entry. Tags and fused reporters are not part of them.
UniProt Q13887: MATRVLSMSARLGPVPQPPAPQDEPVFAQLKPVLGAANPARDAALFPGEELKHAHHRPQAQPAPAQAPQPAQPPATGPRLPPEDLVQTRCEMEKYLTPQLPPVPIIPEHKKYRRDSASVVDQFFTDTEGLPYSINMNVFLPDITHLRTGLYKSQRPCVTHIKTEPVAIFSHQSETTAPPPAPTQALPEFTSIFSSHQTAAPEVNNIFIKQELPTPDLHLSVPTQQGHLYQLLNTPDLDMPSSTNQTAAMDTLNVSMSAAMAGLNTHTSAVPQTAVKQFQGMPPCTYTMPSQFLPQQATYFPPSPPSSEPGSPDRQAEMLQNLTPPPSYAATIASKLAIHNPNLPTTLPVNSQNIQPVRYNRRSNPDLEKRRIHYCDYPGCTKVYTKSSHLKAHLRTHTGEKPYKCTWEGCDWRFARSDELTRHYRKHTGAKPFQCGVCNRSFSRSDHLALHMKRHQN
UniProt P06748: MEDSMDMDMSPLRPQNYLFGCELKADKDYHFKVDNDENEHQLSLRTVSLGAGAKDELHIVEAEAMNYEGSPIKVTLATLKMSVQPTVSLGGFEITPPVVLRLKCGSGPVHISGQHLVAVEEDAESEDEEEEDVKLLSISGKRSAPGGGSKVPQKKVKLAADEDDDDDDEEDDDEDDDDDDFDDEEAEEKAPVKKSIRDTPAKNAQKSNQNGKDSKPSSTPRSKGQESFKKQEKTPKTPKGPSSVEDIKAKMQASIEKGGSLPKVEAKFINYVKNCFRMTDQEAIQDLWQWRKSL

What was measured:
[1] = target: Kruppel-like factor 5 (KLF5) (human (endogenous in OCI-AML3)) (UniProt Q13887); test: co-IP; endogenous proteins in sonicated cell lysates in IP buffer (20 mM Tris-Cl, 150 mM NaCl, 1 mM EDTA, 1 mM EGTA, 1% Triton X-100, pH 7.5); specific antibodies or normal IgG with protein A/G beads overnight at 4 °C; western blot; also in cells with shNPM1, shHOTAIRM1 or HOTAIRM1 overexpression
[2] = target: WW Domain-Containing Protein 1 (WWP1) (human (endogenous in OCI-AML3)) (UniProt Q9H0M0); test: as above

binding [1]: no binding
binding [2]: no binding
Substance: wild-type nucleophosmin (NPM1-wt) (from UniProt P06748 1-294)
